Test system: BAF complex subunits and histone proteins
Test: Mass spectrometry proteomics of purified HA-SS18 WT and HA-SS18-SSX1 complexes (Tables 5A-5E)
Parameters: species or system human
Settings: for Total / Unique: HA-SS18SSX1_CHR_peptides; for Total: total peptides of the identified protein; for Unique: unique peptides of the identified protein
[1] = HA-SS18SSX1_CHR_peptides: protein identified in the HA-SS18-SSX1 purification from solubilized chromatin (CHR), HEK-293T
[2] = HA-SS18WT_CHR_peptides: protein identified in HA-SS18 WT BAF complex purification from nuclease-treated solubilized chromatin (CHR), HEK-293T
[3] = HA-SS18SSX1_NE_peptides: protein co-purified with HA-SS18-SSX1 BAF complexes from soluble nuclear extract (NE), HEK-293T cells
[4] = HA-SS18WT_CHR_peptides: HA-SS18 WT purification from nuclease-treated solubilized chromatin (CHR), HEK-293T, label = protein identified
[5] = HA-SS18WT_NE_peptides: proteins co-purified with HA-SS18 WT from nuclear extract (NE), HEK-293T
[6] = HA-SS18SSX1 purification, NE (soluble nuclear extract) fraction, HEK-293T, peptides per identified protein
[7] = HA-SS18WT_NE_peptides: HA-SS18 WT complexes purified from nuclear extract (NE), HEK-293T, label = protein identified (Gene Symbol)
[8] = HA-SS18SSX1_NE_peptides (Table 5B), HA-SS18-SSX1 BAF complex purification from soluble nuclear extract, HEK-293T
[9] = HA-SS18SSX1_CHR_peptides: proteins found in HA-SS18-SSX1 BAF complex purification from solubilized chromatin (CHR), HEK-293T

KAT6B
Total (total peptides) [1]: 5
Unique (unique peptides) [1]: 4
Total (total peptides) [2]: 1
Unique (unique peptides) [2]: 1

KCNN4
Total (peptides) [3]: 1
Unique (peptides) [3]: 1

KDM5A
Total (total peptides) [1]: 6
Unique (unique peptides) [1]: 5

KDM5B
Total: 2
Unique: 2

KIAA1429
Total: 4
Unique: 4
Total (total peptides) [2]: 1
Unique (unique peptides) [2]: 1

KIDINS220
Total (peptides) [3]: 1
Unique (peptides) [3]: 1

KRI1
Total: 1
Unique: 1
Total (peptides) [4]: 3
Unique (peptides) [4]: 3

KRTCAP2
Total (peptides) [3]: 1
Unique (peptides) [3]: 1
Total (peptides) [5]: 1
Unique (peptides) [5]: 1

LAS1L
Total (total peptides) [1]: 10
Unique (unique peptides) [1]: 9
Total (total peptides) [6]: 3
Unique (unique peptides) [6]: 3
Total (peptides) [4]: 4
Unique (peptides) [4]: 4

LENG8
Total (total peptides) [1]: 5
Unique (unique peptides) [1]: 2
Total (peptides) [4]: 4
Unique (peptides) [4]: 2

LLGL1
Total (peptides) [3]: 1
Unique (peptides) [3]: 1

MCM3AP
Total: 2
Unique: 2
Total (total peptides) [6]: 3
Unique (unique peptides) [6]: 3
Total (peptides) [7]: 4
Unique (peptides) [7]: 4

MDC1
Total (total peptides) [1]: 22
Unique (unique peptides) [1]: 20
Total (peptides) [4]: 7
Unique (peptides) [4]: 7

MDN1
Total (total peptides) [1]: 5
Unique (unique peptides) [1]: 5
Total (peptides) [4]: 4
Unique (peptides) [4]: 3
Total (peptides) [5]: 1
Unique (peptides) [5]: 1

MGA
Total (total peptides) [1]: 6
Unique (unique peptides) [1]: 6

MGST3
Total: 1
Unique: 1
Total (peptides) [3]: 1
Unique (peptides) [3]: 1

MKI67
Total (total peptides) [1]: 20
Unique (unique peptides) [1]: 19
Total (peptides) [4]: 10
Unique (peptides) [4]: 10
Total (peptides) [5]: 1
Unique (peptides) [5]: 1

MRPL28
Total: 2
Unique: 2

MSI1
Total (peptides) [3]: 1
Unique (peptides) [3]: 1
Total (peptides) [5]: 2
Unique (peptides) [5]: 2

MTCH1 [listing 1 of 2 here]
Total (peptides) [8]: 1
Unique (peptides) [8]: 1

MTCH1 [listing 2 of 2 here]
Total (peptides) [5]: 1
Unique (peptides) [5]: 1

MUC5B
Total (total peptides) [2]: 1
Unique (unique peptides) [2]: 1

MYCBP2
Total (total peptides) [6]: 3
Unique (unique peptides) [6]: 3

MYH14
Total (peptides) [5]: 1
Unique (peptides) [5]: 1

MYO6
Total (peptides) [7]: 3
Unique (peptides) [7]: 3

MYO19 [listing 1 of 2 here]
Total (peptides) [8]: 1
Unique (peptides) [8]: 1

MYO19 [listing 2 of 2 here]
Total (peptides) [5]: 1
Unique (peptides) [5]: 1

NIFK
Total: 4
Unique: 4
Total (peptides) [4]: 5
Unique (peptides) [4]: 5

NIPBL
Total (total peptides) [1]: 19
Unique (unique peptides) [1]: 18
Total (peptides) [4]: 10
Unique (peptides) [4]: 10

NLE1
Total (total peptides) [2]: 1
Unique (unique peptides) [2]: 1

NONO
Total (peptides) [3]: 1
Unique (peptides) [3]: 1

NPM1
Total: 3
Unique: 3

NSD1
Total: 4
Unique: 4
Total (total peptides) [2]: 2
Unique (unique peptides) [2]: 2

NUDT21
Total (total peptides) [6]: 4
Unique (unique peptides) [6]: 4
Total (peptides) [7]: 3
Unique (peptides) [7]: 3

NUMA1
Total (total peptides) [1]: 44
Unique (unique peptides) [1]: 42
Total (peptides) [9]: 1
Unique (peptides) [9]: 1
Total (total peptides) [6]: 23
Unique (unique peptides) [6]: 23
Total (peptides) [4]: 31
Unique (peptides) [4]: 29
Total (total peptides) [2]: 1
Unique (unique peptides) [2]: 1
Total (peptides) [7]: 14
Unique (peptides) [7]: 14

NUP188
Total: 2
Unique: 2
Total (total peptides) [6]: 8
Unique (unique peptides) [6]: 8
Total (total peptides) [2]: 1
Unique (unique peptides) [2]: 1
Total (peptides) [7]: 9
Unique (peptides) [7]: 9

NUP205
Total (total peptides) [1]: 9
Unique (unique peptides) [1]: 9
Total (total peptides) [6]: 14
Unique (unique peptides) [6]: 13
Total (peptides) [4]: 4
Unique (peptides) [4]: 4
Total (peptides) [7]: 21
Unique (peptides) [7]: 21

NUP210 [listing 1 of 2 here]
Total (peptides) [3]: 1
Unique (peptides) [3]: 1

NUP210 [listing 2 of 2 here]
Total (total peptides) [2]: 1
Unique (unique peptides) [2]: 1

NUP214
Total: 4
Unique: 4
Total (total peptides) [2]: 1
Unique (unique peptides) [2]: 1
Total (peptides) [5]: 1
Unique (peptides) [5]: 1

PBRM1
Total (total peptides) [1]: 16
Unique (unique peptides) [1]: 14
Total (peptides) [4]: 10
Unique (peptides) [4]: 9
Total (peptides) [5]: 2
Unique (peptides) [5]: 2

PCBP1
Total (peptides) [9]: 1
Unique (peptides) [9]: 1
Total (peptides) [3]: 2
Unique (peptides) [3]: 2
Total (total peptides) [2]: 1
Unique (unique peptides) [2]: 1

PCID2
Total (peptides) [9]: 1
Unique (peptides) [9]: 1
Total (peptides) [3]: 2
Unique (peptides) [3]: 2
Total (peptides) [5]: 2
Unique (peptides) [5]: 2

PDCD11
Total (total peptides) [1]: 26
Unique (unique peptides) [1]: 26
Total (peptides) [4]: 22
Unique (peptides) [4]: 22

PELP1
Total (total peptides) [1]: 11
Unique (unique peptides) [1]: 10
Total (total peptides) [6]: 5
Unique (unique peptides) [6]: 5
Total (peptides) [4]: 3
Unique (peptides) [4]: 3
Total (peptides) [5]: 2
Unique (peptides) [5]: 2

PES1
Total (total peptides) [1]: 11
Unique (unique peptides) [1]: 9

PHB2
Total (peptides) [5]: 2
Unique (peptides) [5]: 2

PHF3
Total (total peptides) [6]: 6
Unique (unique peptides) [6]: 6
Total (peptides) [7]: 4
Unique (peptides) [7]: 4

PHIP
Total (total peptides) [1]: 18
Unique (unique peptides) [1]: 17
Total (peptides) [4]: 12
Unique (peptides) [4]: 11

PHRF1
Total: 2
Unique: 2

PI4KA
Total (peptides) [5]: 1
Unique (peptides) [5]: 1

PKM
Total (peptides) [3]: 3
Unique (peptides) [3]: 2
Total (peptides) [4]: 3
Unique (peptides) [4]: 3

PLEC
Total (total peptides) [2]: 2
Unique (unique peptides) [2]: 2

PNN
Total (total peptides) [1]: 67
Unique (unique peptides) [1]: 25
Total (peptides) [4]: 16
Unique (peptides) [4]: 11

POLRMT
Total (total peptides) [6]: 5
Unique (unique peptides) [6]: 4
Total (peptides) [7]: 7
Unique (peptides) [7]: 6

POTEKP
Total: 2
Unique: 1
Total (peptides) [3]: 2
Unique (peptides) [3]: 1
Total (peptides) [5]: 2
Unique (peptides) [5]: 1

PPP1CA
Total: 1
Unique: 1
Total (peptides) [5]: 1
Unique (peptides) [5]: 1

— US20250283871A1, “COMPOSITIONS AND METHODS FOR MODULATING THE INTERACTION BETWEEN SS18-SSX FUSION ONCOPROTEIN AND NUCLEOSOMES” (Dana-Farber Cancer Institute, Inc., priority 2020, published 2025)
